Measurements taken from the supplement of paper PMC4683952.
Where a name gives a salt, the structure may show the parent alone. Some of the results follow. Rule as the data show it: active = 2.5 or more and inactive = the rest. Most values lie within the scatter of the assay; repeated measurements hardly agree.

System: Lgr5 (MarsCy1-Lgr5-EGFP, U2OS)
Test: cell-surface Lgr5 expression (SCi1 fluorescence, background-subtracted) relative to WT control (fold of WT control); higher = more Lgr5 at the plasma membrane
Conditions: U2OS MarsCy1-Lgr5-EGFP stable; treatment time: overnight; library: Prestwick; 20 µM

| SMILES | cell-surface Lgr5 expression |
| --- | --- |
| CN(C)CCN(Cc1cccs1)c1ccccn1 [Methapyrilene hydrochloride] | inactive: 1.57 |
| COc1c(O[C@@H]2O[C@H](CO)[C@@H](O)[C@H](O)[C@H]2O)cc2c(c1OC)-c1ccc(SC)c(=O)cc1[C@@H](NC(C)=O)CC2 [Thiocolchicoside] | inactive: 1.72 |
| Clc1ccc(C(Cn2ccnc2)OCc2c(Cl)cccc2Cl)c(Cl)c1 (centres undefined) [Isoconazole] | inactive: 0.747 |
| NC(=O)N1c2ccccc2C=Cc2ccccc21 [Carbamazepine] | inactive: 1.39 |
| CO[C@H]1/C=C/O[C@@]2(C)Oc3c(C)c(O)c4c(c3C2=O)C2=NC3(CCN(CC(C)C)CC3)NC2=C(NC(=O)/C(C)=C\C=C\[C@H](C)[C@H](O)[C@@H](C)[C@@H](O)[C@@H](C)[C@H](OC(C)=O)[C@@H]1C)C4=O [Rifabutin] | inactive: 0.866 |
| O=c1cc(-c2ccc(O)cc2)oc2cc(O)cc(O)c12 [Apigenin] | inactive: 0.74 |
| O=C(Cn1ccnc1[N+](=O)[O-])NCCO [Etanidazole] | inactive: 1.93 |
| Cn1c(=O)c2nc[nH]c2n(C)c1=O [Theophylline monohydrate] | inactive: 2.36 |
| c1ccc(C2CN3CCSC3=N2)cc1 (centres undefined) [Tetramisole hydrochloride] | inactive: 2.17 |
| C=C1c2cccc(O)c2C(=O)C2=C(O)[C@]3(O)C(=O)C(C(N)=O)=C(O)[C@@H](N(C)C)[C@@H]3[C@@H](O)[C@H]12 [Methacycline hydrochloride] | inactive: 1.04 |
| COc1cc2cc3c4cc(OC)c(OC)cc4cc[n+]3c(C)c2cc1OC [Coralyne chloride hydrate] | inactive: 1.43 |
| Cc1scc2c1N(C(=O)CN1CCN(C)CC1)c1ccccc1NC2=O [Telenzepine dihydrochloride] | inactive: 1.16 |
| COc1ccc(CN(CCN(C)C)c2ccccn2)cc1 [Pyrilamine maleate] | inactive: 2.36 |
| CCCNC(C)C(=O)Nc1ccccc1C (centres undefined) [Prilocaine hydrochloride] | active: 2.88 |
| CC(COc1ccccc1)N(CCCl)Cc1ccccc1 (centres undefined) [Phenoxybenzamine hydrochloride] | inactive: 2.04 |
| CC(=O)c1ccc(S(=O)(=O)NC(=O)NC2CCCCC2)cc1 [Acetohexamide] | inactive: 1.4 |
| CCCCC[C@H](O)/C=C/[C@@H]1[C@@H](C/C=C\CCCC(=O)O)[C@@H](O)C[C@H]1O [Dinoprost trometamol] | inactive: 0.443 |
| CCOC(=O)c1ccc(OC(=O)CCCCCNC(=N)N)cc1 [Gabexate mesilate] | inactive: 1.01 |
| Cc1cc(=O)oc2cc(O)ccc12 [Hymecromone] | inactive: 2.16 |
| CCOC(=O)OC(C)OC(=O)[C@@H]1N2C(=O)[C@@H](NC(=O)[C@H](N)c3ccccc3)[C@H]2SC1(C)C (some centres undefined) [Bacampicillin hydrochloride] | inactive: 1.37 |
| NCCCC[C@H](N[C@@H](CCc1ccccc1)C(=O)O)C(=O)N1CCC[C@H]1C(=O)O [Lisinopril] | inactive: 1.23 |
| CC(C)(C)NC[C@H](O)COc1nsnc1N1CCOCC1 [Timolol maleate salt] | inactive: 1.91 |

| SMILES | cell-surface Lgr5 expression |
| --- | --- |
| C1CCN2C[C@@H]3C[C@@H](CN4CCCC[C@@H]34)[C@H]2C1 [Sparteine (-)] | inactive: 2.2 |
| CC1CC(OC(=O)C(O)c2ccccc2)CC(C)(C)N1C (centres undefined) [Eucatropine hydrochloride] | inactive: 1.67 |
| Cc1nnc(NS(=O)(=O)c2ccc(N)cc2)s1 [Sulfamethizole] | inactive: 2.2 |
| CCN1CCC[C@H]1CNC(=O)c1c(OC)ccc(Br)c1OC [Remoxipride Hydrochloride] | inactive: 1.35 |
| O=C(O)COC(=O)Cc1ccccc1Nc1c(Cl)cccc1Cl [Aceclofenac] | inactive: 1.12 |
| Cc1cc(/C=C/c2ccc3cc(N(C)C)ccc3[n+]2C)c(C)n1-c1ccccc1 [Pyrvinium pamoate] | inactive: 1.37 |
| CCn1nc(C(=O)O)c(=O)c2cc3c(cc21)OCO3 [Cinoxacin] | inactive: 0.993 |
| CCCCNc1ccc(C(=O)OCCOCCOCCOCCOCCOCCOCCOCCOCCOC)cc1 [Benzonatate] | inactive: 1.25 |
| O=C(O)/C=C/c1ccc(Cn2ccnc2)cc1 [Ozagrel hydrochloride] | inactive: 0.918 |
| Oc1ccc(OCc2ccccc2)cc1 [Monobenzone] | inactive: 1.41 |
| C[C@H]1C[C@H]2[C@@H]3CCC4=CC(=O)C=C[C@]4(C)[C@@]3(F)[C@@H](O)C[C@]2(C)[C@@]1(O)C(=O)CO [Betamethasone] | inactive: 2.1 |
| Cc1ccc(Cl)c(Nc2ccccc2C(=O)O)c1Cl [Meclofenamic acid sodium salt monohydrate] | inactive: 1.97 |
| COC(=O)Nc1nc2ccc(SC(C)C)cc2[nH]1 [Methiazole] | inactive: 1.51 |
| CCN1CCN(C(=O)N[C@@H](C(=O)N[C@@H]2C(=O)N3C(C(=O)O)=C(CSc4nnnn4C)CS[C@H]23)c2ccc(O)cc2)C(=O)C1=O [Cefoperazone dihydrate] | inactive: 0.272 |
| CC(C(=O)O)c1ccc(N2Cc3ccccc3C2=O)cc1 (centres undefined) [Indoprofen] | inactive: 0.0489 |
| CC1=Nc2ccc(Cl)cc2S(=O)(=O)N1 [Diazoxide] | inactive: 1.43 |
| C[C@H](O)C(=O)Nc1c(I)c(C(=O)NC(CO)CO)c(I)c(C(=O)NC(CO)CO)c1I [Iopamidol] | inactive: 1.77 |
| CC(C)CC(=O)N[C@H](C(=O)N[C@H](C(=O)N[C@@H](CC(C)C)[C@@H](O)CC(=O)N[C@@H](C)C(=O)N[C@@H](CC(C)C)[C@@H](O)CC(=O)O)C(C)C)C(C)C [Pepstatin A] | inactive: 1.65 |
| CC[C@H]1OC(=O)[C@H](C)[C@@H](O[C@H]2C[C@@](C)(OC)[C@@H](O)[C@H](C)O2)[C@H](C)[C@@H](O[C@@H]2O[C@H](C)C[C@H](N(C)C)[C@H]2O)[C@](C)(O)C[C@@H](C)[C@@H]2N[C@@H](COCCOC)O[C@H]([C@H]2C)[C@]1(C)O [Dirithromycin] | inactive: 2.18 |
| O=C1CC2(CCCC2)CC(=O)N1CCCCN1CCN(c2ncccn2)CC1 [Buspirone hydrochloride] | inactive: 2.44 |
| Cc1cc(CC(=O)O)n(C)c1C(=O)c1ccc(Cl)cc1 [Zomepirac sodium salt] | inactive: 2.05 |
| CO/N=C(\C(=O)N[C@@H]1C(=O)N2C(C(=O)O)=C(COC(N)=O)CS[C@H]12)c1ccco1 [Cefuroxime sodium salt] | inactive: 1.85 |

| SMILES | cell-surface Lgr5 expression |
| --- | --- |
| O=C(NCC(O)CO)c1c(I)c(C(=O)NCC(O)CO)c(I)c(N(CCO)C(=O)CO)c1I (centres undefined) [Ioversol] | inactive: 2.24 |
| Nc1ccc(S(=O)(=O)Nc2ccnn2-c2ccccc2)cc1 [Sulfaphenazole] | inactive: 1.49 |
| CC1Cc2ccccc2N1NC(=O)c1ccc(Cl)c(S(N)(=O)=O)c1 (centres undefined) [Indapamide] | inactive: 1.04 |
| O=S(=O)(O)c1cc(O)ccc1O [Ethamsylate] | inactive: 1.15 |
| c1ccc([C@H]2CN3CCSC3=N2)cc1 [Levamisole hydrochloride] | inactive: 1.21 |
| CCC(=O)O[C@]1(C(=O)CCl)[C@@H](C)C[C@H]2[C@@H]3CCC4=CC(=O)C=C[C@]4(C)[C@@]3(F)[C@@H](O)C[C@@]21C [Clobetasol propionate] | active: 2.58 |
| O=C1C[C@@H](c2ccc(O)cc2)Oc2cc(O)cc(O)c21 [Naringenine] | inactive: 0.807 |
| O=C1OCCN1/N=C/c1ccc([N+](=O)[O-])o1 [Furazolidone] | inactive: 1.9 |
| CCOC(=O)Oc1c(OC)cc(C(=O)O[C@@H]2C[C@@H]3CN4CCc5c([nH]c6cc(OC)ccc56)[C@H]4C[C@@H]3[C@H](C(=O)OC)[C@H]2OC)cc1OC [Syrosingopine] | inactive: 2.07 |
| CC[N+]1(C)C2CCC1CC(OC(=O)C1CCC(C(=O)OC3CC4CCC(C3)[N+]4(C)CC)(c3ccccc3)c3ccccc31)C2 (stereo not drawn) [beta- Belladonnine dichloroethylate] | inactive: 1.92 |
| COc1ccc(C2CNC(=O)C2)cc1OC1CCCC1 (centres undefined) [Rolipram] | inactive: 1.82 |
| c1ccc2c3c([nH]c2c1)C1C2CCC(C4CCCNC42)N1CC3 (centres undefined) [Nitrarine dihydrochloride] | inactive: 1.74 |
| CN1CC[C@]23c4ccccc4N[C@H]1[C@]21CCN(C)[C@H]3Nc2ccccc21 [Calycanthine] | inactive: 2.32 |
| C[C@H]1C[C@@H]2[C@H]([C@@H](O)C[C@@]3(C)[C@H]2CC[C@]3(O)C(=O)CO)[C@@]2(C)C=CC(=O)C=C12 [Methylprednisolone, 6-alpha] | active: 2.92 |
| CCCNCC(O)COc1ccccc1C(=O)CCc1ccccc1 (centres undefined) [Propafenone hydrochloride] | inactive: 2 |
| COc1cc([C@@H]2c3cc4c(cc3[C@@H](O[C@@H]3O[C@@H]5CO[C@@H](C)O[C@H]5[C@H](O)[C@H]3O)[C@H]3COC(=O)[C@H]23)OCO4)cc(OC)c1O [Etoposide] | inactive: 0.71 |
| Nc1nc2n[nH]nc2c(=O)[nH]1 [Azaguanine-8] | inactive: 1.23 |
| CN(C)c1nc(N(C)C)nc(N(C)C)n1 [Altretamine] | inactive: 1.82 |
| CC(C)NCC(O)c1ccc2ccccc2c1 (centres undefined) [Pronethalol hydrochloride] | inactive: 0.985 |
| Cc1c(N(C)CS(=O)(=O)O)c(=O)n(-c2ccccc2)n1C [Dipyrone] | active: 3.08 |

Sorted by molecular weight (ascending): 3 of the compounds above.

| SMILES | cell-surface Lgr5 expression |
| --- | --- |
| COc1ccc(C2CNC(=O)C2)cc1OC1CCCC1 (centres undefined) [Rolipram] | inactive: 1.82 |
| O=C(O)COC(=O)Cc1ccccc1Nc1c(Cl)cccc1Cl [Aceclofenac] | inactive: 1.12 |
| CC1Cc2ccccc2N1NC(=O)c1ccc(Cl)c(S(N)(=O)=O)c1 (centres undefined) [Indapamide] | inactive: 1.04 |
